Experimental data from paper PMC6838198, “Insights into the assembly and architecture of a Staufen-mediated mRNA decay (SMD)-competent mRNP” (Nature Communications, 2019).
No constants are given. Whether binding was seen depends on the method and setting. Binding can be weak; no strength is given.

Protein sequences, listed by entry. Tags and fused reporters are not part of them. Lines headed by an entry give the natural chain unless they say otherwise; changes in a name come on top.
UniProt O95793: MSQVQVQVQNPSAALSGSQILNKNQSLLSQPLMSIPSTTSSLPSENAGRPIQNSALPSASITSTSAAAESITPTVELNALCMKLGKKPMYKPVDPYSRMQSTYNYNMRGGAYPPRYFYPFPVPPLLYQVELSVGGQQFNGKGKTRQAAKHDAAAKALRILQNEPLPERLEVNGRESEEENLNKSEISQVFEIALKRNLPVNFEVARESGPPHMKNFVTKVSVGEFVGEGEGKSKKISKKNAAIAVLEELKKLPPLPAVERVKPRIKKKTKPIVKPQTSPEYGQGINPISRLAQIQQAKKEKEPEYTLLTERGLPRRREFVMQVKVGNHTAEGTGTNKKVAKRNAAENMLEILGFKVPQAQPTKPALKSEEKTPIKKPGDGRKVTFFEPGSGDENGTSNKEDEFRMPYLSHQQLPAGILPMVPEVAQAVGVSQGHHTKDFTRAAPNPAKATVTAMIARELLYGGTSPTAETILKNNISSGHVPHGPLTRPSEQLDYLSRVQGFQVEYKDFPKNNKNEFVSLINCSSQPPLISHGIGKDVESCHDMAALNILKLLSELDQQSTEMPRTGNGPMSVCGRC
UniProt Q9HAU5: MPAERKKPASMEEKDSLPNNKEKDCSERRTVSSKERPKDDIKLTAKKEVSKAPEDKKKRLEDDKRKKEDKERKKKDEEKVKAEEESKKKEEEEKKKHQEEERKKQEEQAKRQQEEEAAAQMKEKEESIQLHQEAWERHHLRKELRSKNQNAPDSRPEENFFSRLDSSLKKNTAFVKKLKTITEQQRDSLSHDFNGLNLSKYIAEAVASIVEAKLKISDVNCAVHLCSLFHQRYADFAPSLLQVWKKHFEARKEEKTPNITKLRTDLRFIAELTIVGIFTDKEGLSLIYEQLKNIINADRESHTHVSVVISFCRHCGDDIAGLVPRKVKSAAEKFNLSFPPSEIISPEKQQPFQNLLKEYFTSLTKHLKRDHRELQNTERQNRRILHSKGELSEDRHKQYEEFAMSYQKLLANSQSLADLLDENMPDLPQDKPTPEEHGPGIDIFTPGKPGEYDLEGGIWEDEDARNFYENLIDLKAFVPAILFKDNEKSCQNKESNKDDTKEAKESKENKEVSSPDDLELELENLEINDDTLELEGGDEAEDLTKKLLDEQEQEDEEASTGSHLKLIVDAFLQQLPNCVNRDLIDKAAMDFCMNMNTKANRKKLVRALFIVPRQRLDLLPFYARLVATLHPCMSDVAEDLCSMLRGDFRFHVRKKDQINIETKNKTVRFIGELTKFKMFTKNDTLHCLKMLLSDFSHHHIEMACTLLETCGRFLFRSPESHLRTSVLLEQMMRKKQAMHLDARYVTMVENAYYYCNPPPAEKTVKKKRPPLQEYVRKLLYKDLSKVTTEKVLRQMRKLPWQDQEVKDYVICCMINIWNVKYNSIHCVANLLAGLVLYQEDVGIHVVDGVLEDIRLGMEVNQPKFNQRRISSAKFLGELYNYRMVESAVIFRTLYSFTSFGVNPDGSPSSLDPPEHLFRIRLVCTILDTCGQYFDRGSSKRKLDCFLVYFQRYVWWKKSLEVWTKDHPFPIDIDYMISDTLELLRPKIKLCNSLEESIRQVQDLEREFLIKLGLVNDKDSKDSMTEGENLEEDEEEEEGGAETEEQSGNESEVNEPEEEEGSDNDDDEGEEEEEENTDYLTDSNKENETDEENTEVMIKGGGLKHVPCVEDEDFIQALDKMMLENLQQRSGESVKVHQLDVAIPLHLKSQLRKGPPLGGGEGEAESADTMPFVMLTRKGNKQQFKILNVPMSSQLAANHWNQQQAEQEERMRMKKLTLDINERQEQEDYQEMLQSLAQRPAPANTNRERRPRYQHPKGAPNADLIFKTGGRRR

Target: GST-Stau1, full length (human) (UniProt O95793)
Assay: pull-down; GST-tagged bait and prey mixed in equal amounts, 4 °C 16 h, Glutathione Sepharose; 20 mM HEPES pH 7.5, 150 mM NaCl, 10% glycerol, 0.1% NP-40; eluted with 20 mM glutathione, SDS-PAGE and Coomassie; bands quantified with ImageJ; both purified

UPF2-MIF4G3 domain (from UniProt Q9HAU5) (domain or fragment)
binding: binds
